These are yes or no findings as the source states them, for the method shown. Binding calls can cover weak binding; strength is not graded here.

This passage reports binding results from article PMC5245786.

The target in the experiment is T1, SodA (S. aureus (endogenous in strain Newman)) (UniProt P0A0J3).
T1 sequence: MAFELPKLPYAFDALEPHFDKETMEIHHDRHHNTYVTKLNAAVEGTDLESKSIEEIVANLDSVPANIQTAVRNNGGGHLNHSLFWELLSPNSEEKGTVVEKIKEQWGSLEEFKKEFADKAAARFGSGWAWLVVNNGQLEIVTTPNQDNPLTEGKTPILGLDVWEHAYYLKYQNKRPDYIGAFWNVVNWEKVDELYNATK
The experiment is described as follows: native gel or EMSA; cell lysates of wild type S. aureus (grown with or without CP and 0.1 mM PQ), normalised to total protein, resolved on 10% native polyacrylamide gel; bands seen by in-gel nitro blue tetrazolium SOD activity stain. (In general: A gel shift assay detects complexes by their altered migration in electrophoresis.)

For the substance “SodM (S. aureus (endogenous in strain Newman)) (enzyme)”, the binding result is “binds”.
